Percent effect of library compounds

Chains of the proteins cited; added tags and fusions are not shown. Residues count along the entry.
UniProt A4I591, 1-473: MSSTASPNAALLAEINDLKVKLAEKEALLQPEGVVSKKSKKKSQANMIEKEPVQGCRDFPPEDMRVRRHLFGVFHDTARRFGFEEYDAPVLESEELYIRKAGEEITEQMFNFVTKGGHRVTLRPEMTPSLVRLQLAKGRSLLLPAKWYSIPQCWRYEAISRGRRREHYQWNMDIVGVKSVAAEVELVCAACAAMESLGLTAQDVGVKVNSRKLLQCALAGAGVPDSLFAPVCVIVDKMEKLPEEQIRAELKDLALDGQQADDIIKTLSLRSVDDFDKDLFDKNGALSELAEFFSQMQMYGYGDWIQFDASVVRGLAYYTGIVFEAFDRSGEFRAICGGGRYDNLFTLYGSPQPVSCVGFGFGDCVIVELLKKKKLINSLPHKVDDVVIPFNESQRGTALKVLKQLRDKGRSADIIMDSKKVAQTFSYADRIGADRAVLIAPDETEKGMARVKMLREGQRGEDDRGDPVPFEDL
UniProt I6X8D2, whole entry: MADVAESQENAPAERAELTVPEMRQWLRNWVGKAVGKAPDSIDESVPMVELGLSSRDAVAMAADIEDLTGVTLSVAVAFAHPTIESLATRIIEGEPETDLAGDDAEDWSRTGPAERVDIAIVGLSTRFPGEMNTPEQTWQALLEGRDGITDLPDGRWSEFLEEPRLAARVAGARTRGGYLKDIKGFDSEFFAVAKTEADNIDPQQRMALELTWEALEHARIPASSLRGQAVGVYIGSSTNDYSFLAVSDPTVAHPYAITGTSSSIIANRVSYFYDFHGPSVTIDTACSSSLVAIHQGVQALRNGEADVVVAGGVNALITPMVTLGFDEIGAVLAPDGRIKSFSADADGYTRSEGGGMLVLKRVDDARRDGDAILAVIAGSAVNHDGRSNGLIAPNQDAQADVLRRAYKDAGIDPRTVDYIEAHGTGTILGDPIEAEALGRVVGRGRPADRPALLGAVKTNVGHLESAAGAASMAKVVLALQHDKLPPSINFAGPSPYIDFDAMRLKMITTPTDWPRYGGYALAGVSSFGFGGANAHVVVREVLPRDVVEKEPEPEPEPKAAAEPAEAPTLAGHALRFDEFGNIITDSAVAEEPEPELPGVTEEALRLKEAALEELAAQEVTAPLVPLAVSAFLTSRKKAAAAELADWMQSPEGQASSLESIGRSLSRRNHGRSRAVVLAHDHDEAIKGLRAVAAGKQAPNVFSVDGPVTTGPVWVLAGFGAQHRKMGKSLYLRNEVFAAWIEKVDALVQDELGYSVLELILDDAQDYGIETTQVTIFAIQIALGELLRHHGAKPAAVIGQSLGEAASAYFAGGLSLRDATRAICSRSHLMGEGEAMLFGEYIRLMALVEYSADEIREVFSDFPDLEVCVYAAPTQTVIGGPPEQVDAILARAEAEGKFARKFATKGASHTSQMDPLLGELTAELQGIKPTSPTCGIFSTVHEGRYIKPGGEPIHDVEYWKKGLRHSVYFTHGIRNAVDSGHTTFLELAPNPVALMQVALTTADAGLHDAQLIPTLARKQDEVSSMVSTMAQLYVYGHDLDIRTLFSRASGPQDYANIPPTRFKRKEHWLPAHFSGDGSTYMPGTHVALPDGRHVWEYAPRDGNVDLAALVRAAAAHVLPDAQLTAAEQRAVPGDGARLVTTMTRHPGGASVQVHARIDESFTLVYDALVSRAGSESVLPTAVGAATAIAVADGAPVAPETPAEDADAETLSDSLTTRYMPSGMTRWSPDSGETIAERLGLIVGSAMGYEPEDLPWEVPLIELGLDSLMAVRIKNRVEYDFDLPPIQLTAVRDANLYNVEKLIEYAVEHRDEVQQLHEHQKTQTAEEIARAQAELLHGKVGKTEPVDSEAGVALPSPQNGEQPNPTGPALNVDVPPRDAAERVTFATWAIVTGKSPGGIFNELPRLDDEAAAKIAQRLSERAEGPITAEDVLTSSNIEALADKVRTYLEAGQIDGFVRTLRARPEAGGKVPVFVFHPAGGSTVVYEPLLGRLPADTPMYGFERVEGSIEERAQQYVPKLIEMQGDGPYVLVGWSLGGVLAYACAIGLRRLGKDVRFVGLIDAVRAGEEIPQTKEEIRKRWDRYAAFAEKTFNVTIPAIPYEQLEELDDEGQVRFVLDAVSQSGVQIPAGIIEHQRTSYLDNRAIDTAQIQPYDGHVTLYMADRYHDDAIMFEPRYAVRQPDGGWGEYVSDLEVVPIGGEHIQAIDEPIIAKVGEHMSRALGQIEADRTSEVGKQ

Measurements from “University of Dundee, Small-Polar-MMV Screening Library” (2021), ChEMBL document CHEMBL3988442.

The filed quantity is “Percent Effect” (%).
The controls that fix the scale are not given in the record; negative values are as filed.
The compounds are a random part of those screened.
A dash means the value is not listed here; it may have been measured.

LiHisRS: 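Histidine-tRNA ligase, Leishmania infantum (UniProt A4I591). Enzyme assay of histidyl-tRNA synthetase; the read-out is not stated. Tested at 30 µM. The record gives no direction; compounds that gave an IC50 in retests scored well above the rest, so higher reads as stronger inhibition. The assay is labelled LdHisRS but filed under L. infantum. Size under these conditions: about 69,000 compounds, about 410 of them at 50% or above in at least one test.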
Pks13 thioesterase: 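Enzyme assay of the thioesterase domain of polyketide synthase 13; the read-out is not stated. Target: Polyketide synthase Pks13, Mycobacterium tuberculosis (UniProt I6X8D2). Compounds at 30 µM. Higher reads as stronger inhibition (inferred from which compounds were picked for retests). Of about 67,000 compounds tested this way, about 300 (0.46%) reached 50% or more in at least one test.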

Compound,LiHisRS,Pks13 thioesterase
COc1cc(C2(C(=O)NCC(=O)NC3CC3)CC2)ccc1C,17.95,-25.15
c1ccn(Cc2nnc3n2CCCN(Cc2ccoc2)C3)c1,-36.28,12.57
CC(C)(C#N)c1ccc(NS(=O)(=O)CC2CCCCO2)cc1 (stereo not shown),10.17,-14.8
CC(C)c1noc(-c2ccc(NCCCC3CCOC3)nc2)n1 (stereo not shown),8.065,-10.1
CC(C)N(CC(N)=O)C(=O)c1cnc(-c2ccc3c(c2)OCO3)s1,19.47,71.93
O=C1NCCN(CC2CC2)C12CCN(Cc1ccco1)CC2,-1.961,-9.482
CCOc1ccc(C2CCCN2C(=O)NCCn2ccnc2)cc1 (stereo not shown),-2.778,-20.1
Cc1ccc(F)c(NC(=O)CCC(=O)N(C)Cc2nc(C)c[nH]2)c1,7.143,1.893
CC(Cn1cccn1)NC(=O)N(C)Cc1cnn(C)c1 (stereo not shown),-3.614,5.002
Cc1cc(N2CCOC(c3ccc(C(N)=O)cn3)C2)ncn1 (stereo not shown),1.408,-12.55
O=C1CCOC[C@]2(CN(Cc3ccccc3)C[C@H]2c2cccnc2)N1,13.42,-7.476
O=C(c1ccc[nH]1)N1CCCn2c(CNC3CCC3)nnc2C1,22.73,-5.437
CCOc1ccnc(N2CCN(C(=O)c3cnc[nH]3)CC2)n1,15.25,1.507
COc1cc(C(C)=O)ccc1OCC(=O)N(CC(C)C#N)C1CC1 (stereo not shown),9.677,1.954
CC1CN(C)c2ccccc2CN1C(=O)c1ccoc1 (stereo not shown),8.065,-4.32
Cc1nc(CNCC2CCCN2c2cccnn2)oc1C (stereo not shown),20.97,-3.775
N#Cc1ccc(N2CCCN(CC(=O)N3CCOCC3)CC2)cc1,14.04,-6.145
COC(=O)c1cc(C(=O)N2CCN(C)CC2)n(-c2ccccc2)n1,12.5,-2.969
CN(C)c1ccc(NC(=O)NCc2cccs2)cn1,10.96,-10.92
CN(C)c1ncccc1C(=O)N1CCN(C2=NCC(C)(C)S2)CC1,4.386,-4.059
O=C1CC(NS(=O)(=O)NCc2ccccc2)CN1c1ccccc1Cl (stereo not shown),25.71,-1.066
COCCCN1C(=O)CC[C@H]2CN(c3nc4ccccc4s3)CC[C@H]21,10.83,0.3334
Cc1ncc(CNC2CCCN(Cc3noc(C4CC4)n3)C2)s1 (stereo not shown),20,-9.896
O=C1NCCCCC1NC(=O)C1(c2cccc(C(F)(F)F)c2)CC1 (stereo not shown),17.74,-4.835
COC1CCN(S(=O)(=O)NCC2COc3ccccc3C2)CC1 (stereo not shown),20,3.091
COC(CNC(=O)c1ccc[nH]1)c1cccc(Cl)c1 (stereo not shown),15.69,4.343
CN(C)c1ccc(CCNC(=O)C2CCC(=O)N(C3CCCC3)C2)cc1 (stereo not shown),18.45,-16.02
Cc1nccn1-c1ccccc1CNC(=O)c1cn(CCN)nn1,14.75,-16.38
COc1cc(CN(Cc2ccccn2)CC(C)C)cc2c1OCO2,9.6,6.152
COc1cc2c(cc1C1CC(=O)NCc3nc(N(C)C)sc31)CCC2 (stereo not shown),26.88,3.432
CC(=O)N1CCCCC1c1nnc2n1CCNC2 (stereo not shown),2.759,-30.16
CN(C)C(=O)CN1CCc2ncnc(NC3CCC3)c2CC1,0.9009,-4.659
CN(C)C(=O)N1CCC2(CC1)C(=O)N(CC1CCOC1)c1ccccc12 (stereo not shown),15.38,-22.66
Cc1csc(C2CCCCN2C(=O)CN(C)C(C)C)n1 (stereo not shown),17.09,-23.43
O=C(c1cnco1)N1C[C@@H]2CC[C@H](Oc3ccccc3F)[C@@H]2C1,-5.556,6.585
Cc1nc(CNCC2COCc3c(-c4ccoc4)nnn3C2)cs1 (stereo not shown),2.632,-33.24
CC(C(=O)NC(N)=O)N(C)CCCc1cc(-c2ccccc2)no1 (stereo not shown),22.02,-0.9258
COc1ccc(N2CCC(N(C)C(C)C(=O)N(C)C)CC2)cc1 (stereo not shown),3.03,-0.3547
O=C(CN1CCC(N2CCNC2=O)CC1)NCC(F)(F)F,12.36,-30.93
Cc1nc(C2CCCN(C(=O)CN3CCCNC3=O)C2)sc1C (stereo not shown),-4,-17.72
CN(CC(C)(C)C)S(=O)(=O)c1ccc(C(F)(F)F)nc1,2.439,2.224
CCNC(=O)Cc1ccc(NC(=O)NC(CC)CC)cc1,22.58,-21.93
Cn1cc(C(=O)NCc2cncc3c2CCN(c2ccccn2)C3)cn1,-5.941,-52.42
N[C@@H]1c2ccccc2C2(CCN(c3ccc(C(F)(F)F)cn3)CC2)[C@H]1O,22.89,17.27
COc1cccc(CN(C)Cc2nc3cc(C)ccc3[nH]2)c1O,20,-24.17
CC(c1ccncn1)N(C)Cc1cc2cc3c(cc2[nH]c1=O)OCO3 (stereo not shown),37.7,10.13
O=c1oc2ccccc2n1CCCN1CCCC1c1ccc(O)cc1 (stereo not shown),6.25,-15.1
CSCCC(=O)N1CCCC(c2ncc[nH]2)C1 (stereo not shown),20.48,5.704
CN(Cc1ccncc1)C(=O)NC1CCCN(c2ncccn2)C1 (stereo not shown),17.86,-29.44
COCCOc1ccc(NC(=O)N2CCCC2c2cc(C)no2)cn1 (stereo not shown),5.333,-13.91
CCCS(=O)(=O)N1CCC2(CCCC(=O)N2C)CC1,17.48,-35.85
CC(=O)N1CCN(C(=O)C(C)Nc2ccc3ncsc3c2)CC1 (stereo not shown),28.95,12.82
COCC(=O)N1Cc2nccn2CC(Cn2ncccc2=O)C1 (stereo not shown),12.5,-9.428
NC(=O)C1CCCN1Cc1cccc(NC(=O)c2ccc(Cl)cc2F)c1 (stereo not shown),22.32,-9.347
CCOc1cccc(CN(Cc2cnn(C)c2)CC(C)C)c1O,15.5,-7.839
CCOC(=O)C1CN(S(=O)(=O)CC)Cc2ncn(CC)c21 (stereo not shown),18,-21.86
Cc1noc(CCNC(=O)NCc2ccc(N3CCCCC3)cc2)n1,21.43,-12.02
CCN(CC)[C@@H]1CN(Cc2cnn(C)c2)[C@@H]2COC[C@H]12,2.632,-19.27
CCCNC(=O)CN1CCCC1c1nc(Cc2ccc(F)cc2)no1 (stereo not shown),14.29,-31.97
O=C(NCCc1cscn1)c1coc(CN2CCOCC2)c1,10.45,-13.72
COCC(C)Nc1ccc(-c2nc(Cc3ccc(F)cc3)no2)cn1 (stereo not shown),-3.2,2.888
CN1C(=O)[C@H]2CC[C@@H]1CN(C(=O)c1nnc3n1CCCCC3)C2,17.78,-20.88
CC(=O)c1ccc(N2CCCC(CO)(Cc3ccccc3C)C2)nc1 (stereo not shown),26.4,-
Cc1ncncc1-c1ccnc(N(C)C)n1,2.857,1.537
Cc1ccc(C(=O)NC(C)Cn2cccn2)c(=O)[nH]1 (stereo not shown),25.37,-14.08
CC(NC(=O)Nc1nccs1)c1ccncc1 (stereo not shown),11.11,-12.36
CC(NC(=O)N(C)CCCOc1ccccc1)c1nncn1C (stereo not shown),12.07,-9.631